Source: the supplement of paper PMC10849652
The other results are listed elsewhere or left out.

By UniProt entry, the sequences of proteins in these tests, tags left out. Where a name states a change or a piece, a line headed by the entry shows the natural chain unless it says otherwise.
UniProt Q9UHQ9: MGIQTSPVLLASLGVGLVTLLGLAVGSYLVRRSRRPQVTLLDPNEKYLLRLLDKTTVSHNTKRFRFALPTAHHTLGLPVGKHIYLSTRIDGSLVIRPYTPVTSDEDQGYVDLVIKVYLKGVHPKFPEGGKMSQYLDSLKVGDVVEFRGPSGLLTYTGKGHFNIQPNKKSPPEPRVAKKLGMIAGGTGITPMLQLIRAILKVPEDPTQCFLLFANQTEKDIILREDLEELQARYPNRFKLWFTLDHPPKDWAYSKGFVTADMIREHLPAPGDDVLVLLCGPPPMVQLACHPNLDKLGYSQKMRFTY
UniProt Q9H0L4: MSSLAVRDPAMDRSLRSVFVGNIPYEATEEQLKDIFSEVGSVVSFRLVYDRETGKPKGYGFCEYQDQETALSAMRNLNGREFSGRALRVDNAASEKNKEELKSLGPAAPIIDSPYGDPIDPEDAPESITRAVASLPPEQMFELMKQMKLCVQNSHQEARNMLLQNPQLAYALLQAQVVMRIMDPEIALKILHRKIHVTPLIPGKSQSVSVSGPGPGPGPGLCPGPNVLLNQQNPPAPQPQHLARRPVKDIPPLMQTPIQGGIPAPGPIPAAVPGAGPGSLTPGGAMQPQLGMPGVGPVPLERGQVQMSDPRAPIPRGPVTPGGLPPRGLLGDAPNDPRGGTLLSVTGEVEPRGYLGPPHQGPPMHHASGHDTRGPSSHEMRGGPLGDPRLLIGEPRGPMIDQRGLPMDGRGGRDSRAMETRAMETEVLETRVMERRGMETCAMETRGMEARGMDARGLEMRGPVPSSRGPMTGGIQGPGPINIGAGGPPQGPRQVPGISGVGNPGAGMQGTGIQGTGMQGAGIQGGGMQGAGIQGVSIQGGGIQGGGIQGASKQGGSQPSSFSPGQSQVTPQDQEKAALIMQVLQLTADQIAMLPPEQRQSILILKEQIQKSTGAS
UniProt Q9NTM9: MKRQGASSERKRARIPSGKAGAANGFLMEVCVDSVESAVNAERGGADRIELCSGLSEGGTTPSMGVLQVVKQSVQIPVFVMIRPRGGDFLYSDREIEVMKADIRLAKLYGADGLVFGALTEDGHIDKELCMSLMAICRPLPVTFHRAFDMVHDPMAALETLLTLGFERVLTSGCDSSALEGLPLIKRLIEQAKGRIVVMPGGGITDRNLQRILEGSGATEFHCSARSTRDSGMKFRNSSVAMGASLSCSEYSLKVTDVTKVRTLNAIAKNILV
UniProt Q13561, whole entry, looked up: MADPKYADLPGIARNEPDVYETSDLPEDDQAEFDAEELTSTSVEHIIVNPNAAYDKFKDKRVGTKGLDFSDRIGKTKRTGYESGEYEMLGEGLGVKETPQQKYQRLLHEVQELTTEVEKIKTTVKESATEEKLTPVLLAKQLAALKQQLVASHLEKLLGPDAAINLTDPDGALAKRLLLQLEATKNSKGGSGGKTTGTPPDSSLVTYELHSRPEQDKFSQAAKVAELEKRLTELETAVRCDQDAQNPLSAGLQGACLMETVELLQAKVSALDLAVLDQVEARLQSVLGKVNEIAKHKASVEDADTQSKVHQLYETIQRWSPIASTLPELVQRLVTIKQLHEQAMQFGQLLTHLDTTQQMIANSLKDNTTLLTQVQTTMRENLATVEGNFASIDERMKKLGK
UniProt Q8NCG7: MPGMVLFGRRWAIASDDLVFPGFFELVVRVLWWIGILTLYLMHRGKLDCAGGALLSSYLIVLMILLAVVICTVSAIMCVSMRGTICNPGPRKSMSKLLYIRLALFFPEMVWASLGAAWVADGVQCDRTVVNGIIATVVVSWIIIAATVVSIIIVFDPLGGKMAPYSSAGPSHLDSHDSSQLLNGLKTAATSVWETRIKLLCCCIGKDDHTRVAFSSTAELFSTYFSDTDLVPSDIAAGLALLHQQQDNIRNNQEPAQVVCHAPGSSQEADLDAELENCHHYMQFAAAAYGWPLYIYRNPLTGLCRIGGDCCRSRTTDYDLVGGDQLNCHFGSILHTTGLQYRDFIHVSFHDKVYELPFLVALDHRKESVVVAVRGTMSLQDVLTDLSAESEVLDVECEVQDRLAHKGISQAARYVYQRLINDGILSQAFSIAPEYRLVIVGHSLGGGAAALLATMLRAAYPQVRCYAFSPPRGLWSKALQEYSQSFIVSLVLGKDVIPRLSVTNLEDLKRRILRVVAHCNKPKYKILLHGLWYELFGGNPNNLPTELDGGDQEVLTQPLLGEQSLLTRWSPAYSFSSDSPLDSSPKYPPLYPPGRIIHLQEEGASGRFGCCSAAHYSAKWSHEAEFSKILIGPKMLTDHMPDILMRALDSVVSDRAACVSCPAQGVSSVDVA
UniProt Q05048: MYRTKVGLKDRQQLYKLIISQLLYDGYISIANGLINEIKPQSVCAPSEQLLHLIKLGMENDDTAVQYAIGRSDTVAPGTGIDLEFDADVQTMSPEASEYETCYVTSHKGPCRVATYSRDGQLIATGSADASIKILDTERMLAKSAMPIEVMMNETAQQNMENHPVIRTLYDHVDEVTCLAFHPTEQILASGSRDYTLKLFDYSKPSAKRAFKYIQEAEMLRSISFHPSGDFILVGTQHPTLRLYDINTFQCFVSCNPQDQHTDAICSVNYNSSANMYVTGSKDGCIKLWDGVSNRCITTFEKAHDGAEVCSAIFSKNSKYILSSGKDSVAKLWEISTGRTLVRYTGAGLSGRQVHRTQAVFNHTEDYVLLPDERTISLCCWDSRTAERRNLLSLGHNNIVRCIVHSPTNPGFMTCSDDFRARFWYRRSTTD
UniProt Q9P013: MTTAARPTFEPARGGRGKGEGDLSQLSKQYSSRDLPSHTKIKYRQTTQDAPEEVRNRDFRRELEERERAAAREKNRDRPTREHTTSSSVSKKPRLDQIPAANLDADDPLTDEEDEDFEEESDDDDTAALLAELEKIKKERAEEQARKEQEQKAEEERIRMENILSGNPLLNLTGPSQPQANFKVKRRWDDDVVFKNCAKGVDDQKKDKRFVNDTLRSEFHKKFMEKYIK
UniProt Q16643: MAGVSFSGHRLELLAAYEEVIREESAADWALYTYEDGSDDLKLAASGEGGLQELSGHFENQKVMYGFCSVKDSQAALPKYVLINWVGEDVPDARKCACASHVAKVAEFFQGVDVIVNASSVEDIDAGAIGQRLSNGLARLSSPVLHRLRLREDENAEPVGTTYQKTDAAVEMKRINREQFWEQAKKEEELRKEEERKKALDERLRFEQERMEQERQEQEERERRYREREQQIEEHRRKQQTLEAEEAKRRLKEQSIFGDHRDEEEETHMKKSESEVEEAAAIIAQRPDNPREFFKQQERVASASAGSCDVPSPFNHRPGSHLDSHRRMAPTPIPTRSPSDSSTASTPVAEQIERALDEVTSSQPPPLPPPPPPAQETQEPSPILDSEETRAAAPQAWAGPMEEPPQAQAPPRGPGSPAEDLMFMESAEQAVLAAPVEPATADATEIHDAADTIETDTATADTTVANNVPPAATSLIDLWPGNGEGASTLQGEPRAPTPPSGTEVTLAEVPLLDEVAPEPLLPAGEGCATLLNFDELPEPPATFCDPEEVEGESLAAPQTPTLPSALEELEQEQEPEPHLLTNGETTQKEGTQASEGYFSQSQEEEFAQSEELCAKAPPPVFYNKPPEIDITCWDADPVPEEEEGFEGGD
UniProt Q9NWV4: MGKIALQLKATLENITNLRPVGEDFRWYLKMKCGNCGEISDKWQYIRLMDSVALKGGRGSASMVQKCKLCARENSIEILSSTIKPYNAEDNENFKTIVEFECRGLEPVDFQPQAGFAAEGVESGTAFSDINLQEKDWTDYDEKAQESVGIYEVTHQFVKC
UniProt O60911: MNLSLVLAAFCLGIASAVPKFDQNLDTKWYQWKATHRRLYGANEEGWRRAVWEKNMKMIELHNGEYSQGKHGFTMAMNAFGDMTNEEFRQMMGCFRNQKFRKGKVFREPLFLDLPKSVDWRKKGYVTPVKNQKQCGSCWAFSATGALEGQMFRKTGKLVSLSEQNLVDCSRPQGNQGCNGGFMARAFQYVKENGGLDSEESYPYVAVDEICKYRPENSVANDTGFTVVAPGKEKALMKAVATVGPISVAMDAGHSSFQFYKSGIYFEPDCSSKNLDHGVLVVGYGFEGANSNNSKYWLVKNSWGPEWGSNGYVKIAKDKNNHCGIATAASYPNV
UniProt Q6UW02: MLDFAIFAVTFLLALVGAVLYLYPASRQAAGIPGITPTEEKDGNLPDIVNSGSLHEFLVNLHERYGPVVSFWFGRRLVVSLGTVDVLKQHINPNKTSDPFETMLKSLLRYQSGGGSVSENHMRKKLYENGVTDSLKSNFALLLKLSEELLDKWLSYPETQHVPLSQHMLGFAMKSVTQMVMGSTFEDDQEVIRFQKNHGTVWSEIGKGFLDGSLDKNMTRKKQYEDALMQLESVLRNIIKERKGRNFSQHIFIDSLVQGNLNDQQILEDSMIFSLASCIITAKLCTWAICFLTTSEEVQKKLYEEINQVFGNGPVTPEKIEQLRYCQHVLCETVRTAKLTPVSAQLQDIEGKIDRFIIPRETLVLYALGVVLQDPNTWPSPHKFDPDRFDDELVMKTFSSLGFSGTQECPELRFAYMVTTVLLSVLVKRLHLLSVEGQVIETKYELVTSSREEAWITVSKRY
UniProt Q8TB03: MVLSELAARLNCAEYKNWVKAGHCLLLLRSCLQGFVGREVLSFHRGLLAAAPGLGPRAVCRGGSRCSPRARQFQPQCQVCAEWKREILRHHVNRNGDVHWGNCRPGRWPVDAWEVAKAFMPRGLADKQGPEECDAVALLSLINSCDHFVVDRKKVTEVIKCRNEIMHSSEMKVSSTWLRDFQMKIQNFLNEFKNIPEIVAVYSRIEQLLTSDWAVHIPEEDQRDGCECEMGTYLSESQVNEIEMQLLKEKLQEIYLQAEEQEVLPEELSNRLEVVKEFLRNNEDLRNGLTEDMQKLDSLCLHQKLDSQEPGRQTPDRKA
UniProt P61803: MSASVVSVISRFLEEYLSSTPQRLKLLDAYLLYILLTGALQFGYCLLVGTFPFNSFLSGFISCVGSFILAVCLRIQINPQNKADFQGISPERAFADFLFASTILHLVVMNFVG
UniProt Q9Y4B6: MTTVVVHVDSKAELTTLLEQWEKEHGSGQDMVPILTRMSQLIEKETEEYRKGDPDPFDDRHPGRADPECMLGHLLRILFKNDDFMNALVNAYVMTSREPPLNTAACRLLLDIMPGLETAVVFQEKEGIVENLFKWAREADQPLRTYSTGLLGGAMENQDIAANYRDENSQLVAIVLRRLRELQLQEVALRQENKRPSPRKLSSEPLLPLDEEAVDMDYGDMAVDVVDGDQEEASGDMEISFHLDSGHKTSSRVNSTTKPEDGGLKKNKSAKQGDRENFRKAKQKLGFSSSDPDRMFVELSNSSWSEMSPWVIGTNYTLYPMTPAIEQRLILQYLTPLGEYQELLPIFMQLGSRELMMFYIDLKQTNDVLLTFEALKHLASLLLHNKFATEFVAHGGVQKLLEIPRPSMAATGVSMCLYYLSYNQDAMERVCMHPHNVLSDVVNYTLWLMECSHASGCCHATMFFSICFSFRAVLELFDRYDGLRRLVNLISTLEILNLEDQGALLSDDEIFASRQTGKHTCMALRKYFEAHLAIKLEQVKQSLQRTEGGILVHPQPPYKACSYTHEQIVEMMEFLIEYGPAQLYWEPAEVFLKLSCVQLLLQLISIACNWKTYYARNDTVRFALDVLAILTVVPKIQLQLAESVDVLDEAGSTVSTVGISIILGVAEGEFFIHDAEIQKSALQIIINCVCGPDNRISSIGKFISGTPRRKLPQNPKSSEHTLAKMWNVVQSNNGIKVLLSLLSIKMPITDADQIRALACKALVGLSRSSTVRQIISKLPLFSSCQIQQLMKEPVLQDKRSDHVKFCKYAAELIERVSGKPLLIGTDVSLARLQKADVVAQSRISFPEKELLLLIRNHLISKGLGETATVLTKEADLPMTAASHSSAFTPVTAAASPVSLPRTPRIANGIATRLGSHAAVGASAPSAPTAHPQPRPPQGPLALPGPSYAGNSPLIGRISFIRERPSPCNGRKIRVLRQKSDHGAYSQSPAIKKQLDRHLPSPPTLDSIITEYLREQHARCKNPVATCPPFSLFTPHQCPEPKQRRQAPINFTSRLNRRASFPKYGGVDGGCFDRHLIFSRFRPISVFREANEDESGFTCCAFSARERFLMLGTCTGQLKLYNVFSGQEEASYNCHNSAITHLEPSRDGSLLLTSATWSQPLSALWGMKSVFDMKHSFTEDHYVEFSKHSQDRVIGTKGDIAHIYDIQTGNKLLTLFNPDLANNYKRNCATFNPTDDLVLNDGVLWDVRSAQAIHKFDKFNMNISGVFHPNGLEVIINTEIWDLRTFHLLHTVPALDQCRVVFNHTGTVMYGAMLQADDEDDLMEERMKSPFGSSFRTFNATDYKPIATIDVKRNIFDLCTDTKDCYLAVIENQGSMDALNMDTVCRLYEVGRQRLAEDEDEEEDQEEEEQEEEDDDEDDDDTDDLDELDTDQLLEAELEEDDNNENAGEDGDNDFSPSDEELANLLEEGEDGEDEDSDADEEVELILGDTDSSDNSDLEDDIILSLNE

Tests used:
Test in all cases: log2 fold change, soluble protein after heating vs DMSO (PISA); higher = thermal stabilisation; K562 cells, 10 uM, 30 min; active = over 0.2 and 3.5 SD of the protein, either way, in both replicates (recomputed)
[1] = compound: CC[C@@H]1C(=O)N(C)c2cnc(Nc3ccc(C(=O)NC4CCN(C)CC4)cc3OC)nc2N1C1CCCC1
Method in brief: (§1)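 K562 cells at 2×10^6 cells/mL were treated for 30 min with 10 μM compound, and aliquots were heated for 3 min over 48°C-58°C before pooling. Extraction used PBS with 0.5% NP-40 at 4°C, and soluble protein was the supernatant after 21,000xg for 90 min, measured by TMTpro 16plex LC-MS/MS with channel sums equalised. Thermal stability values, relative to control samples and from duplicates, are log2 fold changes.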

[2] = compound: CC[C@@H]1C(=O)N(C)c2cnc(Nc3ccc(C(=O)N[C@H]4CC[C@H](N5CCN(CC6CC6)CC5)CC4)cc3OC)nc2N1C(C)C [volasertib]
Method in brief: as §1

[3] = compound: CC[C@H](C)N1C=C(C2=C(C=C(C=C21)C3=CN=C(C=C3)N4CCNCC4)C(=O)NCC5=C(C=C(NC5=O)C)C)C
Method in brief: as §1

[4] = compound: CC[C@H](C)[C@@H](C(=O)N[C@@H]([C@@H](C)O)C(=O)N[C@@H](CC(C)C)C(=O)[C@]1(CO1)C)NC(=O)[C@H]([C@@H](C)CC)N(C)C(=O)C [epoxomicin]
Method in brief: as §1

[5] = compound: CCn1c(C(=O)N(C2CC2)C2CC2)cc2c3c(ncn3C)c(Nc3cc(C)n(C)n3)nc21
Method in brief: as §1

[6] = compound: CCn1cc(-c2ccnc3[nH]c(-c4cccc(CN(C)C)c4)cc23)c(-c2ccc(NC(=O)N(C)C)cc2)n1
Method in brief: as §1

[7] = compound: CN(C)CC(=O)Nc1ccc2[nH]c(=O)c3ccccc3c2c1
Method in brief: as §1

[8] = compound: CN(CCOC1=CC=C(C=C1)C[C@H]2C(=O)NC(=O)S2)C3=CC=CC=N3 (racemic) [rosiglitazone]
Method in brief: as §1

[9] = compound: CN1C2=C(C3=C1C(=O)N(N=C3)CC4=CC(=CC=C4)N)SC(=C2)S(=O)C
Method in brief: as §1

[10] = compound: CN1CCC(CNc2ccc3ncc(-c4cccc(OC(F)(F)F)c4)n3n2)CC1
Method in brief: as §1

Row | Target | log2 fold change [1] | log2 fold change [2] | log2 fold change [3] | log2 fold change [4] | log2 fold change [5] | log2 fold change [6] | log2 fold change [7] | log2 fold change [8] | log2 fold change [9] | log2 fold change [10]
1 | CYB5R1 (UniProt Q9UHQ9) | inactive: 0.073 | inactive: 0.042 | inactive: -0.015 | inactive: 0.012 | inactive: -0.006 | inactive: -0.038 | inactive: -0.002 | inactive: 0.009 | inactive: -0.067 | inactive: -0.016
2 | DCTN4 (UniProt Q9UJW0) | inactive: 0.012 | inactive: -0.046 | inactive: -0.027 | inactive: 0.013 | inactive: 0.035 | inactive: 0.018 | inactive: -0.019 | inactive: -0.042 | inactive: -0.071 | inactive: 0.082
3 | CSTF2T (UniProt Q9H0L4) | inactive: 0.095 | inactive: 0.048 | inactive: -0.034 | inactive: 0.016 | inactive: -0.031 | inactive: 0.04 | inactive: -0.003 | inactive: 0.018 | inactive: 0.002 | inactive: 0.114
4 | CUTC (UniProt Q9NTM9) | inactive: 0.027 | inactive: 0.013 | inactive: -0.026 | inactive: 0.023 | inactive: 0.001 | inactive: -0.029 | inactive: -0.016 | inactive: 0.026 | inactive: -0.039 | inactive: 0.044
5 | CYB5B, A0A499FJ32 | inactive: 0.016 | inactive: -0.097 | inactive: -0.047 | inactive: -0.033 | inactive: 0.031 | inactive: -0.025 | inactive: 0.047 | inactive: 0.062 | inactive: -0.009 | inactive: 0.1
6 | DCPS (UniProt Q96C86) | inactive: 0.03 | inactive: 0.078 | inactive: -0.008 | inactive: 0.012 | inactive: 0.015 | inactive: -0.044 | inactive: -0.041 | inactive: 0.008 | inactive: -0.039 | inactive: 0.022
7 | CT47A1 (UniProt Q5JQC4) | inactive: -0.047 | inactive: -0.057 | inactive: 0.028 | inactive: 0.029 | inactive: 0.006 | inactive: -0.075 | inactive: -0.083 | inactive: -0.015 | inactive: -0.011 | inactive: 0.015
8 | DCTN2 isoform 2 (UniProt Q13561) | inactive: -0.022 | inactive: -0.171 | inactive: 0.058 | inactive: 0.065 | inactive: 0.01 | inactive: -0.031 | inactive: 0.001 | inactive: 0.014 | inactive: -0.036 | inactive: 0.011
9 | DCK (UniProt P27707) | inactive: 0.023 | inactive: -0.01 | inactive: -0.02 | inactive: -0.032 | inactive: -0.039 | inactive: -0.138 | inactive: 0.014 | inactive: -0.007 | inactive: -0.001 | inactive: 0.063
10 | DAGLB (UniProt Q8NCG7) | inactive: 0.048 | inactive: -0.093 | inactive: -0.034 | inactive: 0.205 | inactive: 0.004 | inactive: -0.13 | inactive: -0.021 | inactive: -0.013 | inactive: -0.02 | inactive: -0.131
11 | DAP3 (UniProt P51398) | inactive: -0.006 | inactive: 0.044 | inactive: 0.127 | inactive: -0.043 | inactive: -0.01 | inactive: -0.069 | inactive: -0.044 | inactive: -0.06 | inactive: 0.065 | inactive: 0.005
12 | DCAF8 (UniProt Q5TAQ9) | inactive: -0.014 | inactive: -0.039 | inactive: -0.013 | inactive: -0.046 | inactive: 0.014 | inactive: -0.01 | inactive: 0.061 | inactive: 0.027 | inactive: 0.045 | inactive: 0.051
13 | CWF19L1 (UniProt Q69YN2) | inactive: 0.001 | inactive: -0.1 | inactive: 0.016 | inactive: 0.018 | inactive: 0.001 | inactive: 0.018 | inactive: 0.028 | inactive: -0.011 | inactive: -0.005 | inactive: 0.006
14 | CSTF1 (UniProt Q05048) | inactive: 0.079 | inactive: 0.051 | inactive: -0.034 | inactive: -0.023 | inactive: -0.017 | inactive: 0.015 | inactive: -0.021 | inactive: 0.001 | inactive: -0.057 | inactive: 0.091
15 | CWC15 (UniProt Q9P013) | inactive: 0.056 | inactive: 0.13 | inactive: -0.123 | inactive: 0.014 | inactive: 0.016 | inactive: 0.018 | inactive: -0.043 | inactive: -0.008 | inactive: 0.009 | inactive: -0.041
16 | DCAF15 (UniProt Q66K64) | inactive: 0.01 | inactive: -0.03 | inactive: 0.204 | inactive: 0.222 | inactive: -0.097 |  | inactive: 0.127 | inactive: 0.039 | inactive: 0.027 | 

Row | Target | log2 fold change [1] | log2 fold change [2] | log2 fold change [3] | log2 fold change [4] | log2 fold change [5] | log2 fold change [6] | log2 fold change [7] | log2 fold change [8] | log2 fold change [9] | log2 fold change [10]
17 | CTBP1 (UniProt Q13363) | inactive: 0.086 | inactive: 0.056 | inactive: -0.03 | inactive: -0.029 | inactive: 0.026 | inactive: -0.083 | inactive: -0.016 | inactive: -0.002 | inactive: -0.068 | inactive: 0.006
18 | CTSB (UniProt P07858) | active: -1.16 | active: -1.72 | inactive: -0.009 | inactive: -0.011 |  | inactive: -0.047 | inactive: 0.021 |  | inactive: -0.07 | active: -0.936
19 | DARS2 (UniProt Q6PI48) | inactive: 0.064 | inactive: 0.067 | inactive: -0.026 | inactive: 0.003 | inactive: -0.018 | inactive: 0.013 | inactive: -0.01 | inactive: -0.019 | inactive: -0.03 | inactive: 0.06
20 | DBN1 isoform 3 (UniProt Q16643) | inactive: 0.026 | inactive: -0.189 | inactive: 0.089 | inactive: -0.014 |  | inactive: 0.087 | inactive: -0.047 |  | inactive: 0.05 | inactive: -0.011
21 | CZIB (UniProt Q9NWV4) | inactive: -0.013 | inactive: -0.1 | inactive: 0.008 | inactive: 0.045 | inactive: 0.002 | inactive: 0.021 | inactive: -0.012 | inactive: 0.009 | inactive: -0.054 | inactive: -0.011
22 | CTSC (UniProt P53634) | active: -0.419 | active: -0.946 | inactive: -0.034 | inactive: 0.023 |  | inactive: -0.032 | inactive: 0.146 |  | inactive: -0.015 | active: -0.433
23 | DCUN1D1 (UniProt Q96GG9) | inactive: -0.1 | active: -0.276 | inactive: 0.018 | inactive: 0.048 |  | inactive: -0.061 | inactive: 0.03 |  | inactive: -0.056 | inactive: -0.178
24 | CTSV (UniProt O60911) | active: -0.719 | active: -0.993 | inactive: -0.054 | inactive: -0.007 |  | inactive: 0.084 | inactive: 0.012 |  | inactive: -0.081 | active: -1.29
25 | CYB5R4 (UniProt Q7L1T6) | inactive: 0.047 | inactive: -0.047 | inactive: 0.01 | inactive: -0.009 | inactive: -0.065 | inactive: 0 | inactive: 0.001 | inactive: 0.012 | inactive: -0.038 | inactive: -0.061
26 | CYP20A1 (UniProt Q6UW02) | inactive: -0.062 | inactive: -0.107 | inactive: 0.014 | inactive: 0.002 | inactive: -0.026 | inactive: 0.005 | inactive: -0.009 | inactive: 0.037 | inactive: -0.059 | inactive: 0.003
27 | CXorf38 (UniProt Q8TB03) | inactive: -0.073 | inactive: -0.1 | inactive: -0.032 | inactive: 0.065 | inactive: 0.025 | inactive: -0.069 | inactive: -0.008 | inactive: 0 | inactive: -0.019 | inactive: -0.066
28 | CUL1 (UniProt Q13616) | inactive: 0.014 | inactive: 0.047 | inactive: -0.032 | inactive: -0.013 | inactive: 0.004 | inactive: -0.027 | inactive: -0.016 | inactive: -0.005 | inactive: -0.051 | inactive: -0.017
29 | DAD1 (UniProt P61803) | inactive: 0.066 | inactive: -0.08 | inactive: -0.026 | inactive: 0.044 | inactive: -0.028 |  | inactive: 0.093 | inactive: 0.086 | inactive: 0.102 | 
30 | DCAF6 isoform 3 (UniProt Q58WW2) | inactive: 0.077 | inactive: 0.05 | inactive: -0.064 | inactive: 0.025 |  | inactive: -0.03 | inactive: -0.035 |  | inactive: 0.006 | inactive: 0.004
31 | DCAF1 (UniProt Q9Y4B6) | inactive: -0.108 | inactive: -0.142 | inactive: 0.021 | inactive: 0.007 | inactive: -0.023 | inactive: -0.049 | inactive: 0.003 | inactive: 0.043 | inactive: -0.045 | inactive: -0.109

Exported as tab-separated lines: entries from further up.
Row	Target	log2 fold change [1]	log2 fold change [2]	log2 fold change [3]	log2 fold change [4]	log2 fold change [5]	log2 fold change [6]	log2 fold change [7]	log2 fold change [8]	log2 fold change [9]	log2 fold change [10]
6	DCPS (UniProt Q96C86)	inactive: 0.03	inactive: 0.078	inactive: -0.008	inactive: 0.012	inactive: 0.015	inactive: -0.044	inactive: -0.041	inactive: 0.008	inactive: -0.039	inactive: 0.022
10	DAGLB (UniProt Q8NCG7)	inactive: 0.048	inactive: -0.093	inactive: -0.034	inactive: 0.205	inactive: 0.004	inactive: -0.13	inactive: -0.021	inactive: -0.013	inactive: -0.02	inactive: -0.131
